In PubChem BioAssay AID1671190 (National Center for Advancing Translational Sciences (NCATS), 2021):
Screen size: about 580,000 compounds; about 6,100 (1.1%) were called active. Inconclusive means that the source gave no clear call. Such entries were picked first, then a sample of the others. The call rests on the fitted dose curve; in most records, active means well fitted inhibition curve with a large enough effect; inconclusive means small, poorly fitted or top-dose-only effect, or another doubt; inactive means no such curve, though single readings can be large or run the other way. Potencies beside an inconclusive call are fits to weak or partial responses and may not hold up.

By UniProt entry, the sequences of proteins in these tests, tags left out. Where a name states a change or a piece, a line headed by the entry shows the natural chain unless it says otherwise.
UniProt P18054: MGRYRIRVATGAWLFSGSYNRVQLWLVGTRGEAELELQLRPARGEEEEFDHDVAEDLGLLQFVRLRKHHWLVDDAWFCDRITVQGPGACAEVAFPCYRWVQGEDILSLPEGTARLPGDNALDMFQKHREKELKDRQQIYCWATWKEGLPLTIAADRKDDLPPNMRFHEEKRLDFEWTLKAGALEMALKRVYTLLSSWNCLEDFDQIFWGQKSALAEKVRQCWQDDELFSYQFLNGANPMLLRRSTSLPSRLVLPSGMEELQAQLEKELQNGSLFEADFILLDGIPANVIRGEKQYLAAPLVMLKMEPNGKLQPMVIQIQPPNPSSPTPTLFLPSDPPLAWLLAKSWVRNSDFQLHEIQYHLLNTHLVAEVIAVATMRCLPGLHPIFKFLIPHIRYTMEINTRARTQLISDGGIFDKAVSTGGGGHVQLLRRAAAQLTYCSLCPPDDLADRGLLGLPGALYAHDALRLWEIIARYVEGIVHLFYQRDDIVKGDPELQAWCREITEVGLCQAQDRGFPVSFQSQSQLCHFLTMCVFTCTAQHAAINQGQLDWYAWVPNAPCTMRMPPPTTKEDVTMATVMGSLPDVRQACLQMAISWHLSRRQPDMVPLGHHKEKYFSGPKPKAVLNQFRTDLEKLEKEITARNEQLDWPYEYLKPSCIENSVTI

biological target: Polyunsaturated fatty acid lipoxygenase ALOX12 (Homo sapiens) (UniProt P18054); assay: Primary qHTS assay for inhibitors of human arachidonate 12S-lipoxygenase (ALOX12): Round 2; settings: purified 12hLO, xylenol orange hydroperoxide absorbance; series mostly up to 108 µM
In short: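 Hydroperoxide product was detected by ferrous iron/xylenol orange as the 573 to 405 nm absorbance ratio. Arachidonic acid at 40 uM (final) was turned over for 30 min at room temperature by 150 nM human 12hLO, pH 7.0 Hepes buffer, after 15 min compound preincubation.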
Potency means the concentration at half of the fitted maximal effect.

| SMILES | Potency |
| --- | --- |
| CCS(=O)(=O)Nc1cccc(-c2ccc3nnc(-c4cccnc4)n3n2)c1 | inactive |
| Cc1ccc(NC(=O)Cn2nc(N3CCN(c4ccccc4)CC3)ccc2=O)cc1F | inconclusive: 126 µM [inhibitor, partial curve, poor fit] |
| Cn1cc([C@@H]2C[C@H]3CN(Cc4cccc(Cl)c4)C(=O)[C@]34CCCN24)c(-c2ccccc2)n1 | inactive |
| Cc1ccccc1C(=O)NC(=S)Nc1ccc(Cc2ccncc2)cc1 | inconclusive: 25.1 µM [inhibitor, full curve, poor fit] |
| CC(NCCC1(C(C)C)CCOC(C)(C)C1)c1cccs1 (stereo not drawn) | inconclusive: 35.5 µM [inhibitor, single point] |
| OC(COCc1ccccc1)CN1CCN(Cc2ccc3c(c2)OCO3)CC1 (stereo not drawn) | inconclusive: 56.2 µM [inhibitor, partial curve, poor fit] |
| O=C(c1ccc2nccnc2c1)N1CCC2(CC1)Nc1ccccc1NC2=O | inactive |
| CCOC(=O)CSc1nnc(-c2ccc([N+](=O)[O-])cc2)o1 | inconclusive: 44.7 µM [inhibitor, partial curve, poor fit] |
| CC(=O)Nc1cc(-c2ccccc2)cn2c(-c3cccc(C(C)=O)c3)cnc12 | inconclusive: 89.1 µM [inhibitor, single point] |
| COc1cccc(C(c2c(NC(=O)c3ccccc3)sc(C)c2C)N2CCN(C)CC2)c1 (stereo not drawn) | inconclusive: 56.2 µM [inhibitor, partial curve, poor fit] |
| COc1cc(O)ccc1CN1CCn2nnc(CCC(=O)N3CCCC3)c2C1 | inconclusive: 12.6 µM [inhibitor, full curve] |
| COc1ccc(-c2csc(C(C)(O)c3cccnc3)n2)cc1 (stereo not drawn) | inconclusive: 44.7 µM [inhibitor, partial curve, poor fit] |
| N#Cc1c(-c2ccccc2Cl)cc(C2CC2)nc1N | inconclusive: 2.82 µM [inhibitor, full curve, poor fit] |
| O=C(Nc1nccs1)c1cccc(NC(=O)c2ccco2)c1 | inactive |
| C/C(CCc1ccccc1)=N\NC(=S)NCCc1ccccc1 | active: 39.8 µM |
| O=C(COc1ccccc1)N[C@@H]1C[C@H](Cn2cc(C3CC3)nn2)[C@@H](O)[C@H]1O | inconclusive: 56.2 µM [inhibitor, single point] |
| N#Cc1c(-c2ccccc2)nc(SCc2cccc(C(F)(F)F)c2)[nH]c1=O | inconclusive: 44.7 µM [inhibitor, partial curve, poor fit] |
| CCN1CCC(O)(/C=C/c2ccc(C)cc2)C(C(=O)/C=C/c2ccc(C)cc2)C1 (stereo not drawn) | active: 50.1 µM |
| CCCCCn1c(=O)c2ccccc2n2c(=S)[nH]nc12 | active: 44.7 µM |
| O=C1C(Cl)=C(N2CCOCC2)C(=O)N1CCc1ccccc1 | inconclusive: 31.6 µM [inhibitor, partial curve] |
| O=C(O)Cc1ccc2[nH]c3ccccc3c2c1 | inactive |
| CC(=O)Nc1ccc(S(=O)(=O)N(C)Cc2ccccc2)cc1 | inactive |

| SMILES | Potency |
| --- | --- |
| COc1ccc(-c2noc([C@@H](C)NCc3ccc(F)cc3)c2C(=O)O)cc1 | inactive |
| COc1ccccc1CNCc1cccc(Oc2ccccc2)c1 | inactive |
| O=S(=O)(Nc1cc(Sc2cccc3cccnc23)c(O)c2ccccc12)c1ccc(F)cc1 | inconclusive: 1.78 µM [inhibitor, full curve, poor fit] |
| O=C(NCCCN1CCN(c2cccc(Cl)c2)CC1)c1cnn(-c2ccc(F)cc2)c1-n1cccc1 | inconclusive: 50.1 µM [inhibitor, partial curve] |
| CC(=O)c1ccc(NC(=O)c2cnn3c(C(F)F)cc(C4CC4)nc23)cc1 | inconclusive: 141 µM [inhibitor, partial curve, poor fit] |
| CCNc1nc(-c2cc3ccccc3o2)cs1 | inconclusive: 44.7 µM [inhibitor, partial curve] |
| O=S(=O)(c1ccc(-c2ccno2)s1)N1CCC2(CCNCC2)C1 | inconclusive: 39.8 µM [inhibitor, partial curve] |
| c1ccc(CN2CC(CNc3cccnc3)C3(C2)CN(c2ccccc2)C3)cc1 (stereo not drawn) | inconclusive: 126 µM [inhibitor, single point] |
| CCC1=C(c2ccc(C)cc2)S(=O)(=O)N=C1N1CCC(C(=O)NCc2ccc(N(C)C)cc2)CC1 | inconclusive: 100 µM [inhibitor, partial curve, poor fit] |
| Cc1ccc(S(=O)(=O)N2CCN(C(=O)NCc3ccc(F)cc3)CC2)c(C)c1 | inconclusive: 112 µM [inhibitor, partial curve, poor fit] |
| COCc1noc([C@@H]2CN(S(=O)(=O)Cc3ccc(F)cc3)C[C@H]2C(N)=O)n1 | inactive |
| CC1(C)CC(=O)C=C(c2ccc(COC(=O)c3cc(F)cc(F)c3)cc2)C1=O | inconclusive: 112 µM [inhibitor, single point] |
| O=[N+]([O-])c1ccccc1CN1CCN(Cc2ccccn2)CC1 | inactive |
| CCc1noc(C)c1C(=O)Nc1ccc(C)c(C)c1 | inconclusive: 224 µM [inhibitor, partial curve, poor fit] |
| O=C(CCc1ccccc1Br)NC1CCN(C2CC2)C1 (stereo not drawn) | inconclusive: 44.7 µM [inhibitor, partial curve, poor fit] |
| COc1cccc(-c2[nH]nc3c2C(c2ccc(O)cc2)C(C#N)=C(N)O3)c1 (stereo not drawn) | inconclusive: 17.8 µM [inhibitor, partial curve, poor fit] |
| Cc1ccc(S(=O)(=O)N2CCN(CC(=O)N/N=C\c3ccc(O)c(O)c3)CC2)cc1 | inconclusive: 3.16 µM [inhibitor, full curve, poor fit] |
| CCC(C)N(C(=O)CSc1ccc(NC(C)=O)cc1)C1CCS(=O)(=O)C1 (stereo not drawn) | inactive |
| COC(=O)c1[nH]c2cc(OC)c(OC)cc2c1/C=N/Nc1ccccc1 | inconclusive: 5.62 µM [inhibitor, full curve, poor fit] |
| CN1C(=O)C(n2ccc3ccccc32)c2cc(Cl)ccc21 (stereo not drawn) | inactive |
| O=[N+]([O-])c1ccc(N=Cc2cccnc2)cc1 | inconclusive: 0.199 µM [inhibitor, full curve, poor fit] |

Reformatted tab-delimited: part of the list above.
SMILES	Potency
COCc1noc([C@@H]2CN(S(=O)(=O)Cc3ccc(F)cc3)C[C@H]2C(N)=O)n1	inactive
CC1(C)CC(=O)C=C(c2ccc(COC(=O)c3cc(F)cc(F)c3)cc2)C1=O	inconclusive: 112 µM [inhibitor, single point]
